System: L-M(TK^−) cells
Experiment: Oxonol displacement currents (membrane translocation), whole-cell voltage clamp
Type: cell-based
Description: All cells were grown and handled like L-M(TK^−) except where noted. L-M(TK^−) cells were grown in Dulbecco's Modified Eagle Media (Gibco; Grand Island, N.Y.) with 10% fetal bovine serum (FBS) and 1% penicillin streptomycin (PS) (Gemini; Calabasas, Calif.). B104 cells were differentiated with 1 μM retinoic acid for 5 days prior to use. The cells were plated on glass coverslips at least one day before use. The adherent cells were washed and maintained in 2.5–3.0 mL of HBSS with 1 g/L glucose and 20 mM HEPES at pH 7.4. A freshly prepared 75 μM aqueous solution of the appropriate oxonol was made prior to an experiment from a DMSO stock solution. The cells were stained by mixing 100 μL of the oxonol solution with 750 μL of the bath and then adding the diluted solution to the cells. The dye was left for 30–40 minutes at a bath concentration of […]. 1.5 mM β-cyclodextrin in the bath solution was necessary for cell loading of DiSBA-C6-(3). The butyl and ethyl derivatives were water-soluble enough to load cells with out β-cyclodextrin complexation. DiSBA-C10-(3) was loaded in a pH 7.4 solution containing 290 mM sucrose and 10 mM HEPES, 364 mOsm, for 10 min at a bath concentration of […]. DiSBA-C10-(3) labeling was quenched by replacing the bath with HBSS solution. The cells were stained with 15 µg/mL of FL-WGA for 15 minutes. The B104 cells required a 125 µg/mL bath concentration to give satisfactory lectin staining. The excess dyes were removed with repeated washes with HBSS. If the excess ethyl or butyl oxonol derivatives were left in the bath, slow currents and fluorescence changes due to redistribution of the dyes into the cell were observed during depolarizations greater than 1 s. The cardiac myocytes [Henderson, S. A., Spencer, M., Sen, A., Kumar, C., Siddiqui, M. A. Q., and Chien, K. R. 1989. Structure organization, and expression of the rat cardiac myosin light chain-2 gene. J. Biol. Chem. 264:18142–18146] were a gift of Professor Kenneth Chien, UCSD. The Jurkat lymphocyte suspensions were grown in RPMI media with 5% heat inactivated FBS and 1% PS. 15–20 mL aliquots of the cellular suspension were washed three times before and after dye staining by centrifugation at 100×g for 4 minutes followed by additions of fresh HBSS.
Patch clamp recording were made using an Axopatch 1-D amplifier equipped with a CV-4 headstage from Axon Instruments (Foster City, Calif.). The data were digitized and stored using the PCLAMP software. […]
12.5 ms long voltage steps at 15 mV increments were applied to the cell, from a holding potential of −70 mV. […] Furthermore, the induced capacitance dq/dV from the oxonol movement is calculated to be ˜5 pF for 100 mV depolarization. […]

CCCCCCN1C(=O)C(=CC=Cc2c(O)n(CCCCCC)c(=S)n(CCCCCC)c2=O)C(=O)N(CCCCCC)C1=S [DiSBA-C6-(3), (1,3-dihexyl-2-thiobarbiturate)trimethine oxonol] was tested, and the “induced capacitance dq/dV from the oxonol movement” value (100 mV depolarization) was ~5 pF, the “Vh, membrane potential with equal numbers of ions in each well” value (fit to Eq. 1, FIG. 4) was −3.8±1.5 mV and the “β, fraction of the externally applied potential felt by the translocating ion” value (fit to Eq. 1, FIG. 4) was 0.42±0.02. For the same compound, the “qmax, total charge in each energy well” value (fit to Eq. 1, FIG. 4, step voltage changes from −30 mV holding potential) was 4770±140 fC.
